These results are taken from PMC11491298.

Sequences of proteins named here, by UniProt entry; tags and fusion partners are left off.
UniProt P52480: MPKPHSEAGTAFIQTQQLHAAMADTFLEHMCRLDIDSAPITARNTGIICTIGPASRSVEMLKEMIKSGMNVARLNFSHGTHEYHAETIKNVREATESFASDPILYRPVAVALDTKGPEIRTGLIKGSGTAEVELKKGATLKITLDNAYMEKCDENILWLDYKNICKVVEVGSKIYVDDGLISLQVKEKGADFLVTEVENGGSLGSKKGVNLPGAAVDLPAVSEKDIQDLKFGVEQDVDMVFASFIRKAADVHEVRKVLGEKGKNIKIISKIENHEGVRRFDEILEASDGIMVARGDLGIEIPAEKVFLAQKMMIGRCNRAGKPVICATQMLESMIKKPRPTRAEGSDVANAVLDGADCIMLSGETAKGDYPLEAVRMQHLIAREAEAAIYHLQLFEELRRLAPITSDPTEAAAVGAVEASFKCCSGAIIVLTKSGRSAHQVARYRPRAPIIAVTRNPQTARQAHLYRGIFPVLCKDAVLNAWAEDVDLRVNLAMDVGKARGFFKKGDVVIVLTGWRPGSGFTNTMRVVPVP

In assay [1] the target is pyruvate kinase M2 (PKM2) (mouse (endogenous in primary hippocampal neurons and hippocampal tissue)) (UniProt P52480). Put plainly: co-IP; hippocampal tissue of each group of 5xFAD mice (M-exo-sh-NC, M-exo-sh-PKM, oe-NC or oe-DLAT treatments); further conditions not told for tissue.
The target is the same in assay [2]. Description: co-IP; lysate of mouse hippocampal neurons (200 ug protein) in IP lysis buffer with protease and phosphatase inhibitors; incubated overnight at 4°C with anti-PKM2, anti-DLAT or control IgG; captured on Protein A/G PLUS-Agarose; western blot for PKM2 and DLAT.

These are yes or no findings as the source states them, for the method shown. Binding seen in cells or lysates may run through a third protein. Some results given as binding are weak or reduced against the parent protein; the word gives no strength.

B1: dihydrolipoamide S-acetyltransferase (DLAT) (protein, UniProt Q8BMF4 86-642)
chain: SLPPHQKVPLPSLSPTMQAGTIARWEKKEGEKISEGDLIAEVETDKATVGFESLEECYMAKILVPEGTRDVPVGSIICITVEKPQDIEAFKNYTLDLAAAAAPQAAPAAAPAPAAAPAAPSASAPGSSYPTHMQIVLPALSPTMTMGTVQRWEKKVGEKLSEGDLLAEIETDKATIGFEVQEEGYLAKILVPEGTRDVPLGAPLCIIVEKQEDIAAFADYRPTEVTSLKPQAAPPAPPPVAAVPPTPQPVAPTPSAAPAGPKGRVFVSPLAKKLAAEKGIDLTQVKGTGPEGRIIKKDIDSFVPSKAAPAAAAAMAPPGPRVAPAPAGVFTDIPISNIRRVIAQRLMQSKQTIPHYYLSVDVNMGEVLLVRKELNKMLEGKGKISVNDFIIKASALACLKVPEANSSWMDTVIRQNHVVDVSVAVSTPAGLITPIVFNAHIKGLETIASDVVSLASKAREGKLQPHEFQGGTFTISNLGMFGIKNFSAIINPPQACILAIGASEDKLIPADNEKGFDVASVMSVTLSCDHRVVDGAVGAQWLAEFKKYLEKPITMLL
As for B1, the binding result in assay [1] and in assay [2] was “binds” each time.
